Source: the supplement of paper PMC10849652
The other results are listed elsewhere or left out.

By UniProt entry, the sequences of proteins in these tests, tags left out. Where a name states a change or a piece, a line headed by the entry shows the natural chain unless it says otherwise.
UniProt Q7L8J4: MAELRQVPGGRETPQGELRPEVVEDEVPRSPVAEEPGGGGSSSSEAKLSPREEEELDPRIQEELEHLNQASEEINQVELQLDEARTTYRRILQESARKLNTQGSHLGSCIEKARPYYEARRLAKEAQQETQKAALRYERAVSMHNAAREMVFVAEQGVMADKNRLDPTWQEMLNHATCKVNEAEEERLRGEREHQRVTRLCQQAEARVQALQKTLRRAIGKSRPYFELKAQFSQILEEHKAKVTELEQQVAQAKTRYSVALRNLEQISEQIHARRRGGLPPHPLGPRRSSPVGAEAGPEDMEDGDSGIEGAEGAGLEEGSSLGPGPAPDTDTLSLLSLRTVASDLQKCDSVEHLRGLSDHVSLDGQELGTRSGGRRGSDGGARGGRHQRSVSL
UniProt Q8N6T7, whole entry, looked up: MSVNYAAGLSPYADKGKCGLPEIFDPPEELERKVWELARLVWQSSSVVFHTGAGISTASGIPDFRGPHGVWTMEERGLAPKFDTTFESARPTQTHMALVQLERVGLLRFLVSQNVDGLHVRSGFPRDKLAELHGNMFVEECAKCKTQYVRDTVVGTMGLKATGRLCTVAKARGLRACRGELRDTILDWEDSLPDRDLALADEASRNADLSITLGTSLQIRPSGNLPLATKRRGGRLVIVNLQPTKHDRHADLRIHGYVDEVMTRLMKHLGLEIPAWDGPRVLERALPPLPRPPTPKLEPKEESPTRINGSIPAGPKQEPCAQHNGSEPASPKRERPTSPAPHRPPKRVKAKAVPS
UniProt Q12874: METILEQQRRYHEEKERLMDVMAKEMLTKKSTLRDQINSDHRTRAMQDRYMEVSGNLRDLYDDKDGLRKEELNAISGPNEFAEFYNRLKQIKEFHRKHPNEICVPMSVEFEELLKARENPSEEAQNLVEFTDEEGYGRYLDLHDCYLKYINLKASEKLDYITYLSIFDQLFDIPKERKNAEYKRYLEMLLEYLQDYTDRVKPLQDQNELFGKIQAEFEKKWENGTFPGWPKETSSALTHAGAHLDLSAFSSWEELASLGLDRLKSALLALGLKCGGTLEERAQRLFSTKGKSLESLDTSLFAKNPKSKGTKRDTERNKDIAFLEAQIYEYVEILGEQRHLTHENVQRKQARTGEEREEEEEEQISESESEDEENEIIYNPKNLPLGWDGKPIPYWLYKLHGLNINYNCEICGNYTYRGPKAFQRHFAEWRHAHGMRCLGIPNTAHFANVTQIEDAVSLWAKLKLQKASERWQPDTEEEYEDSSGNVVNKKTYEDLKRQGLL
UniProt Q01105, whole entry, looked up: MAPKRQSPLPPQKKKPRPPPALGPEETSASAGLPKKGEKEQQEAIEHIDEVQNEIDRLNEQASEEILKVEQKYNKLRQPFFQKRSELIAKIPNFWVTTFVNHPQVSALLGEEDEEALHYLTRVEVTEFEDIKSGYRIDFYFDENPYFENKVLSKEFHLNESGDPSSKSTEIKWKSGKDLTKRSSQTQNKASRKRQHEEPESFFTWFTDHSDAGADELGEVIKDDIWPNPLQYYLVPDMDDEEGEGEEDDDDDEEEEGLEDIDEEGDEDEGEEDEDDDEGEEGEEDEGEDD
UniProt O43765: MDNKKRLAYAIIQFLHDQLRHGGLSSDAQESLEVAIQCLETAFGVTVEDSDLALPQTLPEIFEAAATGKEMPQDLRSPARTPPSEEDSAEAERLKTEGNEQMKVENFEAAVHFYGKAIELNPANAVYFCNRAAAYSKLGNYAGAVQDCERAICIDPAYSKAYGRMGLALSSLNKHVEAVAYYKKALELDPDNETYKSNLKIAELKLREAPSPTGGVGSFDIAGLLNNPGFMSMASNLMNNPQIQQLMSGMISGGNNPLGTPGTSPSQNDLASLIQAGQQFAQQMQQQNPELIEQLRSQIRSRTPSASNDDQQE
UniProt Q96FS4: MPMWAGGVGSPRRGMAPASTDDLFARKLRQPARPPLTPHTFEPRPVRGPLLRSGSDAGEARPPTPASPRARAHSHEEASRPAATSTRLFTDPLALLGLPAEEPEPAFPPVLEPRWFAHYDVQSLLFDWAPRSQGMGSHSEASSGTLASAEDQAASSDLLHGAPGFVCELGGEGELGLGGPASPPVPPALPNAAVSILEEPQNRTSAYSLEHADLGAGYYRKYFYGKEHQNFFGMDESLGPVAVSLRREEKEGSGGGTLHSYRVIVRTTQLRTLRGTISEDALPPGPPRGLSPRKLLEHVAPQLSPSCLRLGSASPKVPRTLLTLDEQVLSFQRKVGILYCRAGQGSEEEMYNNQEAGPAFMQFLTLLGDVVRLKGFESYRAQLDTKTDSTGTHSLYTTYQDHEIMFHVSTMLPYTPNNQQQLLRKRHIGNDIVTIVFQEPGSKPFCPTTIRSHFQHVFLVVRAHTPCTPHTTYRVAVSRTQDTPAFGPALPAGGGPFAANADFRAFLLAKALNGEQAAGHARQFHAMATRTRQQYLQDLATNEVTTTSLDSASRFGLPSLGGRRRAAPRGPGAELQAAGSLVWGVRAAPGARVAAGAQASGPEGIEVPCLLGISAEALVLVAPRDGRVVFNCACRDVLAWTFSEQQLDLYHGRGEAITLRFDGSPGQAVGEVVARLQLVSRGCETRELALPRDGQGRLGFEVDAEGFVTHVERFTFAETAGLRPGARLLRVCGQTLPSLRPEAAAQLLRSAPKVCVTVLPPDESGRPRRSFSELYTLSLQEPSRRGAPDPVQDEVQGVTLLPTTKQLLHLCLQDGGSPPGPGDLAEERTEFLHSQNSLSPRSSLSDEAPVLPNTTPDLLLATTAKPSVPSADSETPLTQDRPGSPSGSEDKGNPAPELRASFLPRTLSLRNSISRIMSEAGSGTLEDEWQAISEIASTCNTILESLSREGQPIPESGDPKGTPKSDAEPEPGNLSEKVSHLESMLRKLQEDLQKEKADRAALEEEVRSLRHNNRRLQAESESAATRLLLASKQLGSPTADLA
UniProt P50454: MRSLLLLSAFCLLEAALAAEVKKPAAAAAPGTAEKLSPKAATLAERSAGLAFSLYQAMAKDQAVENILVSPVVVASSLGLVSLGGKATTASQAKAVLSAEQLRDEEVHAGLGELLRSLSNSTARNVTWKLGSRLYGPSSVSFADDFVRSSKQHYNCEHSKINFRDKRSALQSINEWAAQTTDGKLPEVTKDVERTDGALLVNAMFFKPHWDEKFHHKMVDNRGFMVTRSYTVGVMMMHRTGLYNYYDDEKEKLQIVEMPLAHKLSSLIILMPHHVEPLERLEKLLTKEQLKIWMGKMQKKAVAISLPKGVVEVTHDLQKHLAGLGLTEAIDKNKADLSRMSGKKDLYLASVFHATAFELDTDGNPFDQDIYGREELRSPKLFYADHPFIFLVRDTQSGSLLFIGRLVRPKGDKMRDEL
UniProt Q9UGK8: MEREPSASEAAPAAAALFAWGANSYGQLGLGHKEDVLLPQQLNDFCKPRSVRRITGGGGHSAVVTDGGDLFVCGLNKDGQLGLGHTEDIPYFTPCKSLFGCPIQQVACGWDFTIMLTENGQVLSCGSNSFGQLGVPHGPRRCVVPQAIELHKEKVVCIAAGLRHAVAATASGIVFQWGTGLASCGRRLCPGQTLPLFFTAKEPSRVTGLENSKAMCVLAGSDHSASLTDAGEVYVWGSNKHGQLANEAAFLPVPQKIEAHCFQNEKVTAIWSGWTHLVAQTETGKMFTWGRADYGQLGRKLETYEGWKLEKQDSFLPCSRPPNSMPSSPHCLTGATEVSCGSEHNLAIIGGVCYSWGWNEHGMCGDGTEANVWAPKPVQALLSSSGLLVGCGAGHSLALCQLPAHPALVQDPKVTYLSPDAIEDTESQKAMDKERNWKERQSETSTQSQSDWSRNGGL
UniProt Q15758: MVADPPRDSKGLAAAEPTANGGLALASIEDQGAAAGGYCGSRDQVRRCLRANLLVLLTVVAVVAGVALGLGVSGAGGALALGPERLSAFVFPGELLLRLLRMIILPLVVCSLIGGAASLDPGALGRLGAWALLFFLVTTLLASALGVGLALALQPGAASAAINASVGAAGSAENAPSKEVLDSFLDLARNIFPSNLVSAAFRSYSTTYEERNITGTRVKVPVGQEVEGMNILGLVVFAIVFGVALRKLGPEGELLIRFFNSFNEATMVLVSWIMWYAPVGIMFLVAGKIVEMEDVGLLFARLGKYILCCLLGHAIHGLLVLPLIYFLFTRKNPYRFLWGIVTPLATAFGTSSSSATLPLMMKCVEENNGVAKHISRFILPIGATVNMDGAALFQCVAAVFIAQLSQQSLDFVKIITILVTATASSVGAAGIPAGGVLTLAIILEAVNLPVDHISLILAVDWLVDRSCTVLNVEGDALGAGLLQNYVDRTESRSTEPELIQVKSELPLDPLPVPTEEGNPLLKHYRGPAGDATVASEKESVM
UniProt O75533, whole entry, looked up: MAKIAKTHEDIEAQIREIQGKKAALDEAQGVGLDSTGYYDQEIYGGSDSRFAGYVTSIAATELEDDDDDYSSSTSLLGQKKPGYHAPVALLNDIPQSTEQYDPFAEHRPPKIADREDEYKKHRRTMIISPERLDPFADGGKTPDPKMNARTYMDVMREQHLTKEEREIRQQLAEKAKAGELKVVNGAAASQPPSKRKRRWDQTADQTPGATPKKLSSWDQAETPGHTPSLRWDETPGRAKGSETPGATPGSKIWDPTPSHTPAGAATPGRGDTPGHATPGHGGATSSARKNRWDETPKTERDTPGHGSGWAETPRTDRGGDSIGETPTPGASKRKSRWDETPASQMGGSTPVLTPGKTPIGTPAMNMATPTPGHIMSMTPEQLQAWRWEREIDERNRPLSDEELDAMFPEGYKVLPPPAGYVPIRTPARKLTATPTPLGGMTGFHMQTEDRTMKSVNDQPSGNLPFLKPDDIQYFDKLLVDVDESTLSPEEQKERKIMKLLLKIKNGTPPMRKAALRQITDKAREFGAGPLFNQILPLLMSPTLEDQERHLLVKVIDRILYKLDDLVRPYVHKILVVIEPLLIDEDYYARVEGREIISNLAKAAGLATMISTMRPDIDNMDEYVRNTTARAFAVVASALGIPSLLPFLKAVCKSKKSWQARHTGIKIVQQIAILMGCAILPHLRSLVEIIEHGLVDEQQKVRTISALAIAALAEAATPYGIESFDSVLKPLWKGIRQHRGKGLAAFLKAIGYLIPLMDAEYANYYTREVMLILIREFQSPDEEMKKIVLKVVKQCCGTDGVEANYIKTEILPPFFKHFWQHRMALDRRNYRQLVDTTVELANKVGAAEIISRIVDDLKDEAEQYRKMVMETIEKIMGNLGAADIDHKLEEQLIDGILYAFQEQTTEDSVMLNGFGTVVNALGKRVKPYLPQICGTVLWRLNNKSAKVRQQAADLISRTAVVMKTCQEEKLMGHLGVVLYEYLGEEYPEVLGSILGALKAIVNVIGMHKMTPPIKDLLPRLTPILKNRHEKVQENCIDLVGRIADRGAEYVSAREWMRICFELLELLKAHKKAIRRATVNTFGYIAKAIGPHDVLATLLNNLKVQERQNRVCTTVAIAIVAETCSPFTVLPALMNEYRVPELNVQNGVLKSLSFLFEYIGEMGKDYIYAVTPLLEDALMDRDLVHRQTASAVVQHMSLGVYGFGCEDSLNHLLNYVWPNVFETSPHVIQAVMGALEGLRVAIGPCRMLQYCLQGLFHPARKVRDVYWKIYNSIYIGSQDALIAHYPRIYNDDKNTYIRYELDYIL
UniProt O95470: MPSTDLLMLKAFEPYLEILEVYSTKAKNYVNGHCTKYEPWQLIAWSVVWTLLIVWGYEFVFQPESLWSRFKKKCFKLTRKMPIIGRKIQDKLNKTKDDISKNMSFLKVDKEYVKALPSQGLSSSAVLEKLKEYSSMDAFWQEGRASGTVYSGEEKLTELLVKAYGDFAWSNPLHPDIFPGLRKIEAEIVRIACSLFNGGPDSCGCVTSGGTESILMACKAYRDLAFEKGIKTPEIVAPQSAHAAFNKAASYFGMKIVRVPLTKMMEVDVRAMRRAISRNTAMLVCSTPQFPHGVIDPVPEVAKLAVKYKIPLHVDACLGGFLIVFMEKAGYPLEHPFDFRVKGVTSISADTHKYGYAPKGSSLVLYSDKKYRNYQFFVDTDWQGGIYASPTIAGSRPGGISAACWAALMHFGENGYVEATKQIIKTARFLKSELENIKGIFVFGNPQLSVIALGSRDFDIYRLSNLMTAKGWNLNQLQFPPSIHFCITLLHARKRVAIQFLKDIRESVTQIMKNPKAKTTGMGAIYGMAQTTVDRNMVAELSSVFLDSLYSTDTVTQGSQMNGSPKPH
UniProt Q9NR46: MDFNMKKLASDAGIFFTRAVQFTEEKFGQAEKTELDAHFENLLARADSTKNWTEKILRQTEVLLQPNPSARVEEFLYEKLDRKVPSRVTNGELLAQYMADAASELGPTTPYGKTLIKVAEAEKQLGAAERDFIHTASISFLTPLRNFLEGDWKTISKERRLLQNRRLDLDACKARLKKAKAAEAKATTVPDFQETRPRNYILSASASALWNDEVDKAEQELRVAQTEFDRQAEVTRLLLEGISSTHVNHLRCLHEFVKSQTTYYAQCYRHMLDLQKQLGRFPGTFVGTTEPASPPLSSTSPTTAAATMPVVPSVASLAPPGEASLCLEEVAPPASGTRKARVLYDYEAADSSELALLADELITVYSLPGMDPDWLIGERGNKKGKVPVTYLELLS

Legend:
Assay in all cases: log2 fold change, soluble protein after heating vs DMSO (PISA); higher = thermal stabilisation; K562 lysate, 10 uM; active = over 0.2 and 3.5 SD of the protein, either way, in both replicates (recomputed)
vemurafenib = compound: CCCS(=O)(=O)Nc1ccc(F)c(C(=O)c2c[nH]c3ncc(-c4ccc(Cl)cc4)cc23)c1F [vemurafenib]
Procedure, shortened: (§1)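 Dounce homogenisation of K562 pellets in PBS pH 7.4 with 1 mM MgCl2 produced a crude extract, used at 1 mg/mL protein. Exposure to 10 μM compound lasted 30 min, and aliquots were then heated for 3 min across 48°C-58°C, pooled and brought to 0.5% NP-40 at 4°C. The supernatant after 21,000xg for 90 min was quantified by TMTpro 16plex LC-MS/MS with channel sums equalised. Duplicate values are given as log-two fold change in thermal stability relative to solvent controls.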

[1] = compound: CCCS(=O)(=O)Nc1ccc(F)c(C(=O)c2c[nH]c3ncc(Cl)cc23)c1F
Procedure, shortened: as §1

barasertib = compound: CCN(CCCOc1ccc2c(Nc3cc(CC(=O)Nc4cccc(F)c4)[nH]n3)ncnc2c1)CCOP(=O)(O)O [barasertib]
Procedure, shortened: as §1

[2] = compound: CC[C@@H]1C(=O)N(C)c2cnc(Nc3ccc(C(=O)NC4CCN(C)CC4)cc3OC)nc2N1C1CCCC1
Procedure, shortened: as §1

volasertib = compound: CC[C@@H]1C(=O)N(C)c2cnc(Nc3ccc(C(=O)N[C@H]4CC[C@H](N5CCN(CC6CC6)CC5)CC4)cc3OC)nc2N1C(C)C [volasertib]
Procedure, shortened: as §1

[3] = compound: CCn1c(C(=O)N(C2CC2)C2CC2)cc2c3c(ncn3C)c(Nc3cc(C)n(C)n3)nc21
Procedure, shortened: as §1

[4] = compound: CCn1cc(-c2ccnc3[nH]c(-c4cccc(CN(C)C)c4)cc23)c(-c2ccc(NC(=O)N(C)C)cc2)n1
Procedure, shortened: as §1

[5] = compound: CN1CCC(CNc2ccc3ncc(-c4cccc(OC(F)(F)F)c4)n3n2)CC1
Procedure, shortened: as §1

saracatinib = compound: CN1CCN(CCOc2cc(OC3CCOCC3)c3c(Nc4c(Cl)ccc5c4OCO5)ncnc3c2)CC1 [saracatinib]
Procedure, shortened: as §1

sotrastaurin = compound: CN1CCN(c2nc(C3=C(c4c[nH]c5ccccc45)C(=O)NC3=O)c3ccccc3n2)CC1 [sotrastaurin]
Procedure, shortened: as §1

Measured: log2 fold change

SH3BP5L (UniProt Q7L8J4)
inactive: vemurafenib 0.078 | [1] 0.02 | barasertib -0.029 | [2] 0.011 | volasertib 0.013 | [3] -0.011 | [4] -0.014 | [5] 0.072 | saracatinib 0.05 | sotrastaurin 0

SIL1 (UniProt Q9H173)
inactive: vemurafenib 0.038 | [1] 0.039 | barasertib 0 | [2] 0.044 | volasertib -0.001 | [3] -0.046 | [4] -0.071 | [5] 0.056 | saracatinib -0.004 | sotrastaurin 0.037

SIRT6 (UniProt Q8N6T7)
inactive: vemurafenib 0.048 | [1] 0.129 | barasertib -0.027 | [2] -0.111 | volasertib -0.003 | [3] -0.034 | [4] -0.042 | [5] -0.013 | saracatinib -0.086 | sotrastaurin 0.048

SF3A2 (UniProt Q15428)
inactive: vemurafenib -0.053 | [1] 0.019 | barasertib -0.049 | [2] -0.026 | volasertib -0.008 | [3] 0.037 | [4] -0.262 | [5] 0.108 | saracatinib -0.008 | sotrastaurin 0.013

SETMAR (UniProt Q53H47)
inactive: vemurafenib 0.033 | [1] 0.038 | barasertib -0.031 | [2] -0.042 | volasertib -0.01 | [3] 0.01 | [4] -0.078 | [5] -0.023 | saracatinib 0.04 | sotrastaurin 0.032

SH3BGRL (UniProt O75368)
inactive: vemurafenib -0.006 | [1] 0.001 | barasertib 0.182 | [2] 0.055 | volasertib 0.028 | [3] -0.007 | [4] 0.094 | [5] -0.045 | saracatinib -0.03 | sotrastaurin -0.024

SF3A3 (UniProt Q12874)
inactive: vemurafenib 0.017 | [1] -0.007 | barasertib -0.061 | [2] -0.064 | volasertib -0.032 | [3] 0.01 | [4] 0.094 | [5] -0.05 | saracatinib 0.012 | sotrastaurin 0.007

SETD2 (UniProt Q9BYW2)
inactive: vemurafenib 0.067 | [1] -0.014 | barasertib 0.004 | [2] -0.055 | volasertib 0.007 | [3] -0.064 | [4] -0.074 | [5] 0 | saracatinib 0.011 | sotrastaurin 0.013

SET isoform 2 (UniProt Q01105)
inactive: vemurafenib 0.003 | [1] -0.01 | barasertib -0.035 | [2] 0.053 | volasertib 0.04 | [3] -0.032 | [4] -0.027 | [5] 0.034 | saracatinib 0.018 | sotrastaurin 0.026

SGTA (UniProt O43765)
inactive: vemurafenib 0.006 | [1] 0.001 | barasertib 0.122 | [2] 0.023 | volasertib 0.008 | [3] -0.023 | [4] 0.009 | [5] -0.022 | saracatinib 0.003 | sotrastaurin -0.01

SIPA1 (UniProt Q96FS4)
inactive: vemurafenib 0.005 | [1] 0.079 | barasertib 0.023 | [2] -0.034 | volasertib 0.008 | [3] -0.007 | [4] -0.095 | [5] 0.068 | saracatinib -0.002 | sotrastaurin 0.013

SGPP1 (UniProt Q9BX95)
inactive: vemurafenib -0.06 | [1] 0.013 | barasertib 0.042 | [2] -0.209 | volasertib 0.017 | [3] 0.093 | [4] 0.12 | [5] -0.068 | saracatinib 0.008 | sotrastaurin -0.033

SIPA1L1 (UniProt O43166)
inactive: vemurafenib 0.004 | [1] -0.064 | barasertib -0.03 | [2] 0.017 | volasertib -0.049 | [3] 0.083 | [4] -0.195 | [5] 0.078 | sotrastaurin 0.204

2 entries drawn at random from the list so far:
SGTA (UniProt O43765)
inactive: vemurafenib 0.006 | [1] 0.001 | barasertib 0.122 | [2] 0.023 | volasertib 0.008 | [3] -0.023 | [4] 0.009 | [5] -0.022 | saracatinib 0.003 | sotrastaurin -0.01

SIPA1 (UniProt Q96FS4)
inactive: vemurafenib 0.005 | [1] 0.079 | barasertib 0.023 | [2] -0.034 | volasertib 0.008 | [3] -0.007 | [4] -0.095 | [5] 0.068 | saracatinib -0.002 | sotrastaurin 0.013

(listing goes on)

SERPINH1 (UniProt P50454)
inactive: vemurafenib 0.023 | [1] -0.012 | barasertib -0.019 | [2] 0.016 | volasertib 0.008 | [3] -0.008 | [4] -0.078 | [5] 0.028 | saracatinib -0.017 | sotrastaurin 0

SHOC2 (UniProt Q9UQ13)
inactive: vemurafenib 0.018 | [1] 0.022 | barasertib 0.002 | [2] 0.053 | volasertib -0.029 | [3] 0.022 | [4] -0.149 | [5] 0.063 | saracatinib -0.028 | sotrastaurin -0.024

SERPINB9 (UniProt P50453)
inactive: vemurafenib 0.009 | [1] 0.007 | barasertib -0.048 | [2] -0.003 | volasertib 0.029 | [3] -0.037 | [4] 0.05 | [5] 0.025 | saracatinib 0.009 | sotrastaurin -0.03

SIRT1 (UniProt Q96EB6)
inactive: vemurafenib -0.001 | [1] 0.021 | barasertib 0.027 | [2] -0.013 | volasertib 0.004 | [3] 0.006 | [4] 0.077 | [5] -0.077 | saracatinib 0.016 | sotrastaurin 0.016

SERGEF (UniProt Q9UGK8)
inactive: vemurafenib -0.107 | [1] 0.043 | barasertib 0.035 | [2] -0.008 | volasertib -0.061 | [3] 0.015 | [4] -0.045 | [5] -0.021 | saracatinib 0.041 | sotrastaurin -0.307

SHROOM1 (UniProt Q2M3G4)
inactive: vemurafenib 0.045 | [1] -0.12 | barasertib -0.007 | [2] -0.025 | volasertib 0.136 | [3] -0.061 | [4] 0.07 | [5] -0.031 | saracatinib 0.042 | sotrastaurin 0.096

SLC1A5 (UniProt Q15758)
inactive: vemurafenib 0.032 | [1] 0.01 | barasertib -0.029 | [2] 0.076 | volasertib 0.075 | [3] -0.037 | [4] -0.072 | [5] 0.045 | saracatinib 0.013 | sotrastaurin 0.013

SIRT5 (UniProt Q9NXA8)
inactive: vemurafenib -0.079 | [1] 0.11 | barasertib -0.011 | [2] -0.033 | volasertib -0.025 | [3] 0.02 | [4] 0.154 | [5] 0.017 | saracatinib -0.017 | sotrastaurin -0.062

SF3B1 (UniProt O75533)
inactive: vemurafenib -0.006 | [1] 0.006 | barasertib 0.003 | [2] -0.018 | volasertib -0.016 | [3] -0.019 | [4] -0.033 | [5] 0.041 | saracatinib 0.01 | sotrastaurin 0.02

SFXN4 (UniProt Q6P4A7)
inactive: vemurafenib 0.111 | [1] 0.002 | barasertib -0.061 | [2] 0.115 | volasertib 0.032 | [3] -0.028 | [4] -0.168 | [5] 0.035 | saracatinib 0.044 | sotrastaurin 0.014

SGPL1 (UniProt O95470)
inactive: vemurafenib -0.096 | [1] 0.042 | barasertib 0.021 | [2] -0.028 | volasertib -0.032 | [3] -0.031 | [4] 0.046 | [5] 0.014 | saracatinib 0.067 | sotrastaurin -0.022

SF3B6 (UniProt Q9Y3B4)
inactive: vemurafenib -0.006 | [1] -0.003 | barasertib -0.026 | [2] 0.027 | volasertib 0.014 | [3] -0.003 | [4] 0.061 | [5] -0.013 | saracatinib 0.028 | sotrastaurin 0.018

SH3GLB2 (UniProt Q9NR46)
inactive: vemurafenib -0.056 | [1] 0.001 | barasertib -0.017 | [2] 0.005 | volasertib -0.03 | [3] 0.038 | [4] -0.007 | [5] -0.009 | saracatinib -0.021 | sotrastaurin -0.043

SKAP2 (UniProt O75563)
inactive: vemurafenib 0.049 | [1] 0.038 | barasertib 0.069 | [2] 0.011 | volasertib -0.024 | [3] -0.151 | [4] -0.146 | [5] -0.016 | saracatinib 0.026 | sotrastaurin 0.035
